Results: doi:10.1101/2021.05.19.444448
Like-named read-outs stand apart in the source and are kept apart here. No constants are given. Whether binding was seen depends on the method and setting. Binding seen in cells or lysates may run through a third protein. Some results given as binding are weak or reduced against the parent protein; the word gives no strength.

Sequences of proteins named here, by UniProt entry; tags and fusion partners are left off.
UniProt P11142: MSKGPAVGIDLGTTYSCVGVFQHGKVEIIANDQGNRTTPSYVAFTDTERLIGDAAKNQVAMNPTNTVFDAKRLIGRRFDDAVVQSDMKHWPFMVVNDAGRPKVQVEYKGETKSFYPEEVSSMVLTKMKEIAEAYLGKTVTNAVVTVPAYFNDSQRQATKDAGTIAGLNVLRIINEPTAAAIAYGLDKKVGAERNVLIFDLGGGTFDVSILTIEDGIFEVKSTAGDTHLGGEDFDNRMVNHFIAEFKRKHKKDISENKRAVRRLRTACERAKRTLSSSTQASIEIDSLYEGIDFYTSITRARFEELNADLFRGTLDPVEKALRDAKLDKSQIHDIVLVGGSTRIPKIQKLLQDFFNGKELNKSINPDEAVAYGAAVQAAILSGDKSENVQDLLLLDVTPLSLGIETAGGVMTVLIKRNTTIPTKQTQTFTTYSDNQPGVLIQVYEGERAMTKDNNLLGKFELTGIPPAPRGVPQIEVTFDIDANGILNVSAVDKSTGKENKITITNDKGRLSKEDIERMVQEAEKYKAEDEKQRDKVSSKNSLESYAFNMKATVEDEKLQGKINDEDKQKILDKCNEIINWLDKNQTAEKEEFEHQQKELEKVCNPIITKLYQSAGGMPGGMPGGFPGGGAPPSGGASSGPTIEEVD

Tests used:
[1] = target: T1, PGBD1 (endogenous, SHEP cells) (human (endogenous in SHEP)) (UniProt Q96JS3); test: co-IP
T1 sequence: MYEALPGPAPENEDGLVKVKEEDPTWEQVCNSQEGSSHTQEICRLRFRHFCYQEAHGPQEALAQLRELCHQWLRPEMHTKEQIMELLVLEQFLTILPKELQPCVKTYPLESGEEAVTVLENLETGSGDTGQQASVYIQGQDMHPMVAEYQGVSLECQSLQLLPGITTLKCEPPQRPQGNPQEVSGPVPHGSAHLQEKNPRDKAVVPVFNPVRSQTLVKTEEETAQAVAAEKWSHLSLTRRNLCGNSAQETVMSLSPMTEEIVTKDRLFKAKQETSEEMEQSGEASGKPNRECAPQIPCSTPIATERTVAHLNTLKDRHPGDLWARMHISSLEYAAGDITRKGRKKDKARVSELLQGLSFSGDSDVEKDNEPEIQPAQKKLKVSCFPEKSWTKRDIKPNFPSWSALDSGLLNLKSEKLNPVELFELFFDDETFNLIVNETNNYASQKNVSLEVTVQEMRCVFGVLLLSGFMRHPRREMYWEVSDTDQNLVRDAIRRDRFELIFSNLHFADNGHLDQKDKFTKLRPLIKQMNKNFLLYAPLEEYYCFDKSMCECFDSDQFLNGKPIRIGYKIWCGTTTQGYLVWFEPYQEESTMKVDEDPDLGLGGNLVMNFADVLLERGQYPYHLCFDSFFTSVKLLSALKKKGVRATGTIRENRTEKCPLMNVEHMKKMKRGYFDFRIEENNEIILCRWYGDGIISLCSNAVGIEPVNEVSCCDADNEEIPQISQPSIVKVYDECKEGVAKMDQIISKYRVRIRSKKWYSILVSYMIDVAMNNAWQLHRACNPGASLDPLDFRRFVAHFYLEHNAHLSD

[2] = target: T1, PGBD1 (endogenous, SHEP cells) (human (endogenous in SHEP)); test: co-IP; remark: listed apart in the source

## HSPA8/HSC70, endogenous in SHEP (from UniProt P11142 1-646)
[1]
  binding: binds

B1: thioredoxin (TXN), in SHEP (protein, UniProt P10599 1-105)
chain: MVKQIESKTAFQEALDAAGDKLVVVDFSATWCGPCKMIKPFFHSLSEKYSNVIFLEVDVDDCQDVASECEVKCMPTFQFFKKGQKVGEFSGANKEKLEATINELV
[2]
  binding: binds
